PubChem BioAssay AID743454 | Peter MacCallum Cancer Centre – 2014

Purpose: 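Knock-downs lowering viability or raising caspase 3/7 activity in vorinostat-treated resistant cells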 (primary screen)
Cell system: human HCT116-VR colon cancer cells, selected for vorinostat resistance
Reagents: siRNA pool against human genes, 40 nM siRNA pool
Timing: vorinostat for 24 h, read-out about 72 h after transfection
Challenge: vorinostat at 2.5 µM final
Measured: 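Two measures, CellTiter-Fluor viability and luminescent caspase 3/7 activity, each as fold change against same-plate mock wells, mean of duplicates, then screen-wide robust z-score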
Direction: viability robust z-score: higher = more viable cells than screen typical; caspase robust z-score: higher = more caspase 3/7 activity than screen typical
Active means: 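Hits are knock-downs in viability class RV1/RV2 or caspase class CA1/CA2, excluding ones that killed cells in the no-drug cell-count arm; hits then retested with single siRNAs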
Here is a random part of about 18,000 reagents tested. 450 of them (2.5%) count as active. 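Single biological run; no consistent viability z cut-off exists, so the class columns, not z-scores, define the calls.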 Reagent sequences are not shown.

no.	gene symbol	viability hit class	caspase hit class	viability robust z-score	caspase robust z-score	activity call
1	HMOX2	no change	no change	-0.32	0.91	inactive
2	CARD18	no change	no change	0.94	-0.65	inactive
3	ZNF28	no change	no change	1.48	3.42	inactive
4	SF3A1	no change	no change	-3.91	1.76	inactive
5	C19orf44	no change	no change	-0.26	1.99	inactive
6	SLC3A2	no change	no change	0.05	0.06	inactive
7	ZNF81	no change	no change	0.93	1.44	inactive
8	MNAT1	no change	no change	-0.31	0.2	inactive
9	CHCHD1	no change	no change	0.52	-0.28	inactive
10	CCL18	no change	no change	0.96	0.46	inactive
11	GSTK1	no change	no change	0.78	-0.7	inactive
12	TPRG1L	no change	no change	-0.63	0.34	inactive
13	DYNC1I2	no change	no change	-1.39	0.86	inactive
14	TLE4	no change	no change	-0.62	2.96	inactive
15	DUSP28	no change	no change	1.08	4.56	inactive
16	NFIC	no change	no change	-0.54	0.92	inactive
17	PTPRC	no change	no change	0.66	-0.53	inactive
18	TTPAL	no change	no change	2.19	1.54	inactive
19	C1QTNF5	no change	no change	-0.34	1.55	inactive
20	UBAP1	no change	no change	1.47	0.26	inactive
21	TMCO6	no change	no change	-0.5	0.46	inactive
22	ELP6	no change	no change	-0.76	0.42	inactive
23	HEXIM2	no change	no change	-1.14	-1.31	inactive
24	BCCIP	no change	no change	-1.09	-0.29	inactive
25	FYN	no change	no change	1.15	-1.01	inactive
26	ZDHHC24	no change	no change	0.28	-0.42	inactive
27	YWHAE	no change	no change	-0.91	-0.75	inactive
28	NPY	no change	no change	0.46	-0.24	inactive
29	CTCFL	no change	no change	-0.13	2.76	inactive
30	PCDHA4	no change	no change	-1.04	-0.82	inactive
31	CCDC68	no change	no change	2.06	-0.53	inactive
32	GABARAPL2	no change	no change	1.05	-0.64	inactive
33	OR56A1	no change	no change	0.16	1.08	inactive
34	EPM2AIP1	no change	no change	-0.48	-0.45	inactive
35	HOXB7	no change	no change	-0.05	-0.54	inactive
36	MYH6	no change	no change	-0.56	-0.5	inactive
37	HOXD3	no change	no change	0.96	-0.14	inactive
38	EIF3M	no change	no change	-2.74	2.76	inactive
39	MEAF6	no change	no change	0.15	-0.99	inactive
40	CLEC11A	no change	no change	0.1	-0.7	inactive
41	PTPRB	no change	no change	2.21	-0.2	inactive
42	RILP	no change	no change	-0.2	-0.66	inactive
43	CEP135	no change	no change	-0.1	0.06	inactive
44	ALAS2	no change	no change	-0.99	0.37	inactive
45	UBA3	no change	no change	0.66	0.85	inactive
46	SOX17	no change	no change	0.62	-0.68	inactive
47	TOR2A	no change	no change	-0.3	1.06	inactive
48	PRAMEF6	no change	no change	-0.32	0.3	inactive
49	CLEC4E	no change	no change	0.91	-1.1	inactive
50	C15orf40	no change	no change	-0.44	-0.75	inactive
51	CYS1	no change	no change	0.06	-0.95	inactive
52	VWCE	no change	no change	0.11	2.63	inactive
53	SEC22B	no change	no change	0.05	1.14	inactive
54	EP400	no change	no change	-0.48	-0.78	inactive
55	BSND	no change	no change	-0.44	0.55	inactive
56	CUL7	no change	no change	-0.72	-0.92	inactive
57	LUZP2	no change	no change	1.47	0.6	inactive
